# Laboratory results as given in the supplement of paper PMC8728848.
# The list shows a part of the results.
# B1: Eosinophil-derived neurotoxin (EDN) (Homo sapiens), P10153 (protein)
# chain: MVPKLFTSQICLLLLLGLLAVEGSLHVKPPQFTWAQWFETQHINMTSQQCTNAMQVINNYQRRCKNQNTFLLTTFANVVNVCGNPNMTCPSNKTRKNCHHSGSQVPLIHCNLTTPSPQNISNCRYAQTPANMFYIVACDNRDQRRDPPQYPVVPVHLDRII
# Tests used:
# Experiment in all cases: glycan array binding signal (z-score within array); higher = stronger binding
# Settings in all cases: glycan notation: IUPAC condensed, linker removed
# [1] = target: Neu5Ac(a2-6)Gal(b1-4)GlcNAc(b1-2)Man(a1-6)[Gal(b1-4)GlcNAc(b1-2)Man(a1-3)]Man(b1-4)GlcNAc(b1-4)GlcNAc
# Method in brief: (§1)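 Glycan array binding is given as a within-array Z-score, which can be read as non-binding when negative. The arrays, 3228 of them, came from the Consortium for Functional Glycomics database and were retained only where the protein sequence was available. Z-scores were averaged across arrays of the same protein sequence at different concentrations or buffers and across linkers.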
# [2] = target: Neu5Ac(a2-6)Gal(b1-4)GlcNAc(b1-2)Man(a1-6)[GlcNAc(b1-2)Man(a1-3)]Man(b1-4)GlcNAc(b1-4)GlcNAc
# Method in brief: as §1
# [3] = target: Neu5Ac(a2-6)Gal(b1-4)GlcNAc(b1-2)Man(a1-6)[Man(a1-3)]Man(b1-4)GlcNAc(b1-4)GlcNAc
# Method in brief: as §1
# [4] = target: Neu5Ac(a2-6)Gal(b1-4)GlcNAc(b1-3)Gal(b1-3)GlcNAc
# Method in brief: as §1
# [5] = target: Neu5Ac(a2-6)Gal(b1-4)GlcNAc(b1-3)Gal(b1-4)GlcNAc
# Method in brief: as §1
# [6] = target: Neu5Ac(a2-6)Gal(b1-4)GlcNAc(b1-3)Gal(b1-4)GlcNAc(b1-3)Gal(b1-4)GlcNAc
# Method in brief: as §1
# [7] = target: Neu5Ac(a2-6)Gal(b1-4)GlcNAc(b1-3)Gal(b1-4)[Fuc(a1-3)]GlcNAc(b1-3)Gal(b1-4)[Fuc(a1-3)]GlcNAc
# Method in brief: as §1
# [8] = target: Neu5Ac(a2-6)Gal(b1-4)GlcNAc(b1-3)GalNAc
# Method in brief: as §1
# [9] = target: Neu5Ac(a2-6)Gal(b1-4)GlcNAc6S
# Method in brief: as §1
# [10] = target: Neu5Ac(a2-6)GalNAc
# Method in brief: as §1
# [11] = target: Neu5Ac(a2-6)GalNAc(b1-4)GlcNAc
# Method in brief: as §1
# [12] = target: Neu5Ac(a2-6)GlcNAc(b1-4)GlcNAc
# Method in brief: as §1
# [13] = target: Neu5Ac(a2-6)GlcNAc(b1-4)GlcNAc(b1-4)GlcNAc
# Method in brief: as §1
# [14] = target: Neu5Ac(a2-8)Neu5Ac
# Method in brief: as §1
# [15] = target: Neu5Ac(a2-8)Neu5Ac(a2-3)Gal(b1-3)GalNAc(b1-4)[Neu5Ac(a2-8)Neu5Ac(a2-3)]Gal(b1-4)Glc
# Method in brief: as §1
# [16] = target: Neu5Ac(a2-8)Neu5Ac(a2-3)Gal(b1-4)Glc
# Method in brief: as §1
# [17] = target: Neu5Ac(a2-8)Neu5Ac(a2-3)[Gal(b1-3)GalNAc(b1-4)]Gal(b1-4)Glc
# Method in brief: as §1
# [18] = target: Neu5Ac(a2-8)Neu5Ac(a2-3)[GalNAc(b1-4)]Gal(b1-4)Glc
# Method in brief: as §1
# [19] = target: Neu5Ac(a2-8)Neu5Ac(a2-8)Neu5Ac
# Method in brief: as §1
# [20] = target: Neu5Ac(a2-8)Neu5Ac(a2-8)Neu5Ac(a2-3)Gal(b1-4)Glc
# Method in brief: as §1
# [21] = target: Neu5Ac(a2-8)Neu5Ac(a2-8)Neu5Ac(a2-3)[GalNAc(b1-4)]Gal(b1-4)Glc
# Method in brief: as §1
# [22] = target: Neu5Ac(a2-8)Neu5Ac(a2-8)Neu5Ac(a2-8)Neu5Ac(a2-3)[GalNAc(b1-4)]Gal(b1-4)Glc
# Method in brief: as §1
# [23] = target: Neu5Ac(b2-6)Gal(b1-4)GlcNAc
# Method in brief: as §1
# [24] = target: Neu5Ac(b2-6)GalNAc
# Method in brief: as §1
# [25] = target: Neu5Ac9Ac(a2-3)Gal(b1-3)GlcNAc
# Method in brief: as §1
# [26] = target: Neu5Ac9Ac(a2-3)Gal(b1-4)GlcNAc
# Method in brief: as §1
# [27] = target: Neu5Ac9Ac(a2-6)Gal(b1-4)GlcNAc
# Method in brief: as §1
# [28] = target: Neu5Gc(a2-3)Gal(b1-3)GlcNAc
# Method in brief: as §1
# [29] = target: Neu5Gc(a2-3)Gal(b1-3)[Fuc(a1-4)]GlcNAc
# Method in brief: as §1
# [30] = target: Neu5Gc(a2-3)Gal(b1-4)Glc
# Method in brief: as §1
# [31] = target: Neu5Gc(a2-3)Gal(b1-4)GlcNAc
# Method in brief: as §1
# [32] = target: Neu5Gc(a2-3)Gal(b1-4)[Fuc(a1-3)]GlcNAc
# Method in brief: as §1
# [33] = target: Neu5Gc(a2-6)Gal(b1-4)GlcNAc
# Method in brief: as §1
# [34] = target: Neu5Gc(a2-6)GalNAc
# Method in brief: as §1
# [35] = target: Neu5Gc(b2-6)Gal(b1-4)GlcNAc
# Method in brief: as §1
binder,measurement,setting,value
B1,glycan array binding signal (z-score),[1],0.174
same,glycan array binding signal (z-score),[2],0.737
same,glycan array binding signal (z-score),[3],-0.079
same,glycan array binding signal (z-score),[4],-0.676
same,glycan array binding signal (z-score),[5],0.023
same,glycan array binding signal (z-score),[6],-0.452
same,glycan array binding signal (z-score),[7],0.256
same,glycan array binding signal (z-score),[8],0.04
same,glycan array binding signal (z-score),[9],-0.126
same,glycan array binding signal (z-score),[10],-0.29
same,glycan array binding signal (z-score),[11],0.382
same,glycan array binding signal (z-score),[12],-0.497
same,glycan array binding signal (z-score),[13],0.208
same,glycan array binding signal (z-score),[14],0.394
same,glycan array binding signal (z-score),[15],-0.783
same,glycan array binding signal (z-score),[16],-0.61
same,glycan array binding signal (z-score),[17],-0.144
same,glycan array binding signal (z-score),[18],1.66
same,glycan array binding signal (z-score),[19],-0.335
same,glycan array binding signal (z-score),[20],-0.176
same,glycan array binding signal (z-score),[21],-0.121
same,glycan array binding signal (z-score),[22],-1.11
same,glycan array binding signal (z-score),[23],0.387
same,glycan array binding signal (z-score),[24],0.895
same,glycan array binding signal (z-score),[25],-0.207
same,glycan array binding signal (z-score),[26],-0.489
same,glycan array binding signal (z-score),[27],-0.683
same,glycan array binding signal (z-score),[28],0.306
same,glycan array binding signal (z-score),[29],-0.217
same,glycan array binding signal (z-score),[30],-0.261
same,glycan array binding signal (z-score),[31],0.858
same,glycan array binding signal (z-score),[32],-0.119
same,glycan array binding signal (z-score),[33],0.944
same,glycan array binding signal (z-score),[34],0.524
same,glycan array binding signal (z-score),[35],0.153

# 2 entries from above, as tab-separated lines:
binder	measurement	setting	value
B1	glycan array binding signal (z-score)	[34]	0.524
same	glycan array binding signal (z-score)	[35]	0.153
